Data as given in PubChem BioAssay AID1159593 (NIAID, 2016).
Shown is a random part of 756 reagents. 137 of them (18%) were called active. 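Active means p65 translocation went either up or down; genes were judged on the median of six siRNAs, not single siRNAs.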 The numbers tell different reagents against one gene apart. Not stated in the record: the amount of reagent.

Screen: 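TLR pathway parts governing NF-kappaB p65 translocation after LPS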
System: RAW264.7 macrophages of mouse, with reporters for p65 (GFP) and the Tnf promoter (mCherry)
Reagent: single siRNA against mouse genes
Time to read-out: 48 to 72 hours after siRNA transfection, then LPS for 40 min
Treatment: LPS (Salmonella minnesota R595) for 40 min before fixation; dose not given
Detection: 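High-content imaging of GFP-p65 moving into nuclei after 40 min LPS, plate median/MAD normalised, replicate mean of robust z-score relative to negative controls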
Scale: p65 translocation z-score: higher = more nuclear NF-kappaB p65 after LPS
Active means: 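z scored in tiers by size in both directions (1, 1.5, 2, 2.5); stated active cut-off missing, but called actives lie near absolute z 1.5 or above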
Calls: active = changed p65 translocation (either direction); inactive = no clear change

p65 translocation z-score, by gene knocked down and reagent
Lbp (lipopolysaccharide binding protein): #1 -0.202 inactive; #2 -1.83 active; #3 0.978 inactive; #4 -0.754 inactive; #5 1.03 inactive; #6 -0.286 inactive
Tradd (TNFRSF1A-associated via death domain): #1 -1.04 inactive; #2 -0.453 inactive; #3 -0.778 inactive; #4 -0.23 inactive; #5 -0.436 inactive; #6 0.842 inactive
Ep300 (E1A binding protein p300): #1 -2.52 active; #2 -1.31 inactive; #3 -0.8 inactive; #4 -1.1 inactive; #5 -1.23 inactive; #6 -1.34 inactive
Map3k8 (mitogen-activated protein kinase kinase kinase 8): #1 0.111 inactive; #2 0.181 inactive; #3 0.386 inactive; #4 -0.636 inactive; #5 0.206 inactive; #6 -0.373 inactive
Map2k3 (mitogen-activated protein kinase kinase 3): #1 0.53 inactive; #2 -0.186 inactive; #3 -0.34 inactive; #4 -0.563 inactive; #5 -1.48 inactive; #6 -0.357 inactive
Fos (Fos proto-oncogene, AP-1 transcription factor subunit): #1 -3.63 active; #2 -0.179 inactive; #3 -0.59 inactive; #4 -1.33 inactive; #5 -0.732 inactive; #6 -1.05 inactive
Il1rl1 (interleukin 1 receptor-like 1): #1 -0.421 inactive; #2 -1.24 inactive; #3 -0.846 inactive; #4 -1.28 inactive; #5 -1.7 active; #6 -1.29 inactive
Tbk1 (TANK-binding kinase 1): #1 -0.0634 inactive; #2 -0.0134 inactive; #3 -0.169 inactive; #4 0.294 inactive; #5 -1.64 active; #6 1.4 inactive
Rela (Rela proto-oncogene, NFKB subunit): #1 -1.24 inactive; #2 -1.01 inactive; #3 0.341 inactive; #4 2.38 active; #5 -2.2 active; #6 -0.814 inactive
Pik3cb: #1 -0.077 inactive; #2 -0.962 inactive; #3 -0.583 inactive; #4 -0.54 inactive; #5 -0.956 inactive; #6 -1.52 active
Mapkapk2 (MAP kinase-activated protein kinase 2): #1 -1.39 inactive; #2 0.486 inactive; #3 -0.525 inactive; #4 -1.56 active; #5 -0.211 inactive; #6 -0.564 inactive
Pik3ca: #1 -0.808 inactive; #2 0.228 inactive; #3 0.132 inactive; #4 -0.793 inactive; #5 -1.93 active; #6 1.13 inactive
Cd180 (CD180 antigen): #1 -2.05 active; #2 0.64 inactive; #3 0.936 inactive; #4 0.275 inactive; #5 -1.31 inactive; #6 0.247 inactive
Ly86 (lymphocyte antigen 86): #1 0.111 inactive; #2 -1.86 active; #3 -0.61 inactive; #4 -1.78 active; #5 1.52 active; #6 -0.085 inactive
Pik3cd: #1 0.0183 inactive; #2 0.486 inactive; #3 -0.105 inactive; #4 0.611 inactive; #5 -1.29 inactive; #6 1.98 active
Arf6 (ARF GTPase 6): #1 -0.455 inactive; #2 -0.324 inactive; #3 -0.714 inactive; #4 -0.262 inactive; #5 -0.222 inactive; #6 -0.918 inactive
Chuk (conserved helix-loop-helix ubiquitous kinase): #1 1.33 inactive; #2 -0.993 inactive; #3 0.548 inactive; #4 3.57 active; #5 -1.58 active; #6 0.178 inactive
Stat1 (signal transducer and activator of transcription 1): #1 -0.102 inactive; #2 0.984 inactive; #3 0.289 inactive; #4 -1.23 inactive; #5 0.148 inactive; #6 -0.718 inactive
Tlr8 (toll-like receptor 8): #1 -0.126 inactive; #2 0.649 inactive; #3 -0.497 inactive; #4 0.17 inactive; #5 -2.29 active; #6 0.021 inactive

17 entries already listed, sorted by “p65 translocation z-score”, low to high.
gene knocked down	reagent	p65 translocation z-score	call
Rela (Rela proto-oncogene, NFKB subunit)	5	-2.2	active
Il1rl1 (interleukin 1 receptor-like 1)	5	-1.7	active
Tbk1 (TANK-binding kinase 1)	5	-1.64	active
Il1rl1 (interleukin 1 receptor-like 1)	6	-1.29	inactive
Il1rl1 (interleukin 1 receptor-like 1)	4	-1.28	inactive
Il1rl1 (interleukin 1 receptor-like 1)	2	-1.24	inactive
Rela (Rela proto-oncogene, NFKB subunit)	1	-1.24	inactive
Rela (Rela proto-oncogene, NFKB subunit)	2	-1.01	inactive
Il1rl1 (interleukin 1 receptor-like 1)	3	-0.846	inactive
Rela (Rela proto-oncogene, NFKB subunit)	6	-0.814	inactive
Tbk1 (TANK-binding kinase 1)	3	-0.169	inactive
Tbk1 (TANK-binding kinase 1)	1	-0.0634	inactive
Tbk1 (TANK-binding kinase 1)	2	-0.0134	inactive
Tbk1 (TANK-binding kinase 1)	4	0.294	inactive
Rela (Rela proto-oncogene, NFKB subunit)	3	0.341	inactive
Tbk1 (TANK-binding kinase 1)	6	1.4	inactive
Rela (Rela proto-oncogene, NFKB subunit)	4	2.38	active
